# Screening data

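A panel of P. falciparum strains inside erythrocytes is exposed to compounds for three days, then a DNA-binding dye reports the amount of parasite DNA. Each compound was titrated across a series from about 0.000037 to 29 µM. The number is the fitted AC50, the concentration giving a half-maximal change in signal; a lower value means higher potency, whether the curve shows a decrease or an increase. Calls follow the curve class and fit quality: every row here is inconclusive, covering signal-raising curves and weak, poorly fitted, partial or highest-dose-only inhibition curves.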

Values are in µM. Every entry below has the call inconclusive. These entries are mostly ones the record files as inconclusive; other results of the assay are not listed here. A potency from a partial, single-point or poor curve is only a rough figure.

O=c1c(-c2ccccc2)c1-c1ccccc1 [DFO2036] read Potency 11.22 µM (inhibitor, single point). O=c1c(-c2ccccc2)c1-c1ccccc1 [CP247] read Potency 11.22 µM (inhibitor, single point). With O=c1c(-c2ccccc2)c1-c1ccccc1 [CP265] the assay gave Potency 12.59 µM (inhibitor, single point). With O=c1c(-c2ccccc2)c1-c1ccccc1 [CP252] the assay gave Potency 14.13 µM (inhibitor, single point). O=c1c(-c2ccccc2)c1-c1ccccc1 [CP238] read Potency 11.22 µM (inhibitor, single point). O=c1c(-c2ccccc2)c1-c1ccccc1 [CP217] gave Potency 11.22 µM (inhibitor, single point). With O=c1c(-c2ccccc2)c1-c1ccccc1 [AA1029] the assay gave Potency 10 µM (inhibitor, single point).

O=c1c(-c2ccccc2)c1-c1ccccc1 [P93_24] gave Potency 11.22 µM (inhibitor, single point). O=c1c(-c2ccccc2)c1-c1ccccc1 [CP191] read Potency 14.13 µM (inhibitor, single point). O=c1c(-c2ccccc2)c1-c1ccccc1 [P94_40] read Potency 15.85 µM (inhibitor, single point). For O=c1c(-c2ccccc2)c1-c1ccccc1 [CP211] the result was Potency 19.01 µM (inhibitor, single point). O=c1c(-c2ccccc2)c1-c1ccccc1 [CP192] read Potency 13.46 µM (inhibitor, single point). With O=c1c(-c2ccccc2)c1-c1ccccc1 [CP201] the assay gave Potency 16.94 µM (inhibitor, single point). O=c1c(-c2ccccc2)c1-c1ccccc1 [CP194] read Potency 12 µM (inhibitor, single point).

O=c1c(-c2ccccc2)c1-c1ccccc1 [CP268] gave Potency 15.1 µM (inhibitor, single point). O=c1c(-c2ccccc2)c1-c1ccccc1 [CP185] read Potency 10 µM (inhibitor, single point). With O=c1c(-c2ccccc2)c1-c1ccccc1 [ATS95] the assay gave Potency 11.22 µM (inhibitor, single point). O=c1c(-c2ccccc2)c1-c1ccccc1 [CP297] gave Potency 19.01 µM (inhibitor, single point). O=c1c(-c2ccccc2)c1-c1ccccc1 [CP269] gave Potency 19.01 µM (inhibitor, single point). With O=c1c(-c2ccccc2)c1-c1ccccc1 [C2A] the assay gave Potency 12.59 µM (inhibitor, single point). O=c1c(-c2ccccc2)c1-c1ccccc1 [CP315] read Potency 19.01 µM (inhibitor, single point).

O=c1c(-c2ccccc2)c1-c1ccccc1 [TAB109] read Potency 12.59 µM (inhibitor, single point). For O=c1c(-c2ccccc2)c1-c1ccccc1 [DIV14] the result was Potency 13.46 µM (inhibitor, partial curve, poor fit). O=c1c(-c2ccccc2)c1-c1ccccc1 [AS120] read Potency 11.22 µM (inhibitor, single point). For Nc1c2c(nc3ccccc13)CCCC2 [AS120] the result was Potency 10 µM (inhibitor, single point). Nc1c2c(nc3ccccc13)CCCC2 [CP268] gave Potency 13.46 µM (inhibitor, single point). With Nc1c2c(nc3ccccc13)CCCC2 [CP291] the assay gave Potency 12 µM (inhibitor, single point). For Nc1c2c(nc3ccccc13)CCCC2 [HB3] the result was Potency 17.78 µM (inhibitor, single point).

From PubChem BioAssay record AID504749 (NCATS, 2011).